This is one part of the list. The data scatter; read single values as rough.
Assays:
[1] = compound: ClCC(=O)N[C@@H]1CCCc2ccccc12; assay: log2 mean competition ratio of IA-DTB cysteine labelling (DMSO/compound) (log2 ratio); higher = stronger cysteine engagement by compound; details: treatment time: 4 h, cell line lysate: HEK293T
Experimental: (§1)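 IA-DTB competitive cysteine chemoproteomics in HEK293T RIPA lysate. Lysates were treated with compound 29 or 30 at 50 or 200 µM for 4 h, then IA-DTB (500 µM, 1 h), trypsin-digested, NeutrAvidin-enriched and analysed by diaPASEF. Competition ratio = intensity DMSO / intensity compound (n=4 treated, n=64 DMSO); binding: mean log2 CR ≥ 1 and p ≤ 0.05 plus QC filters. Target is the cysteine site.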

[2] = compound: ClCC(=O)N[C@H]1CCCc2ccccc12; assay: as above; details: treatment time: 4 h, cell line lysate: HEK293T
Experimental: as §1

Target | log2 mean competition ratio ([1]; 50 µM) | log2 mean competition ratio ([1]; 200 µM) | log2 mean competition ratio ([2]; 50 µM) | log2 mean competition ratio ([2]; 200 µM)
FAM3C C185 (UniProt Q92520) | 0.059 | -0.067 | 0.213 | 0.23
ESYT2 C181 | 0.12 | -0.173 | -0.213 | -0.269
FAM136A C114 (UniProt Q96C01) | 0.16 | 0.736 | 0.161 | 0.519
EXOC2 C638 (UniProt Q96KP1) | -0.0435 | 0.233 | -0.543 | -0.277
EXPH5 C1081 | -0.21 | 0.17 | -0.103 | 0.0381
EMSY C194 (UniProt Q7Z589) | 0.275 | -0.0247 | 0.221 | 0.209
FAHD2A C215 (UniProt Q96GK7) | 0.119 | -0.321 | -0.103 | -0.0417
EMG1 C66 (UniProt Q92979) | -0.19 | 0.0405 | -0.139 | 0.0448
EMILIN3 C330 | 0.0825 | -0.0995 | -0.368 | 0.26
ENKD1 C171 (UniProt Q9H0I2) | -0.0786 | 0.183 | -0.581 | -0.122
FAAP20 C70 (UniProt Q6NZ36) | -0.0997 | -0.108 | 0.192 | 0.354
FAM193A C292, A0A1B0GVL4 | -0.711 | -0.266 | -0.27 | -0.106
FAM120B C392 (UniProt Q96EK7) | -0.28 | 0.158 | -0.132 | 0.157
EPS8 C767 | -0.0853 | -0.313 | 0.0391 | -0.0214
FAM8A1 C93 (UniProt Q9UBU6) | 0.0424 | -0.0847 | -0.27 | -0.208
ELP2 C769 (UniProt Q6IA86) | 0.426 | -0.347 | 0.412 | -0.29
ETAA1 C893 (UniProt Q9NY74) | -0.153 | 0.0987 | -0.193 | 0.277
EXOC8 C521 (UniProt Q8IYI6) | -0.118 | -0.154 | 0.205 | -0.142
FAM120C C354 (UniProt Q9NX05) | 0.0887 | 0.153 | -0.0248 | 0.125
EP400 C3158 (UniProt Q96L91) | -0.104 | -0.0444 | 0.0119 | -0.0432
EXOSC3 C67 (UniProt Q9NQT5) | -0.132 | -0.207 | 0.057 | -0.291
FAM120B C344 (UniProt Q96EK7) | -0.141 | 0.612 | 0.176 | 0.342
EXOSC7 C189 (UniProt Q15024) | -0.15 | 0.099 | 0.15 | -0.248
EPS15 C586 (UniProt P42566) | -0.0854 | 0.157 | -0.188 | 0.111

Target | log2 mean competition ratio ([1]; 50 µM) | log2 mean competition ratio ([1]; 200 µM) | log2 mean competition ratio ([2]; 50 µM) | log2 mean competition ratio ([2]; 200 µM)
EPRS1 C660 | -0.17 | 0.057 | -0.546 | -0.104
EXOSC9 C9 (UniProt Q06265) | -0.157 | -0.0952 | 0.271 | -0.0969
EXOSC6 C117 (UniProt Q5RKV6) | -0.0123 | 0.357 | -0.0604 | -0.0921
EXOC8 C664 (UniProt Q8IYI6) | 0.00391 | 0.0256 | 0.00115 | 0.0123
ERCC4 C242 (UniProt Q92889) | 0.299 | 0.0771 | -0.483 | -0.196
FAM98C C36 (UniProt Q17RN3) | 0.0872 | 0.387 | 0.0957 | 0.401
FAM193B C766 (UniProt Q96PV7) | 0.208 | 0.0545 | 0.0524 | -0.0203
ESPNL C629 | 0.13 | 0.27 | -0.159 | 0.202
FAM120B C356 (UniProt Q96EK7) | -0.283 | 0.0851 | 0.0369 | 0.122
FAM171A2 C742 (UniProt A8MVW0) | -0.31 | 0.15 | -0.156 | 0.188
FAM222B C288 (UniProt Q8WU58) | -0.403 | 0.231 | 0.109 | 0.267
FANCI C1025 (UniProt Q9NVI1) | -0.0701 | 0.0276 | 0.0876 | 0.0265
FAM120C C745 (UniProt Q9NX05) | -0.00453 | 0.242 | 0.074 | 0.106
EXOSC8 C60 (UniProt Q96B26) | 0.17 | -0.0363 | -0.0837 | -0.222
EXTL3 C74 (UniProt O43909) | 0.00528 | -0.0431 | 0.0893 | 0.291
EMC6 C29 (UniProt Q9BV81) | 0.135 | -0.134 | 0.576 | 0.00651
ERC1 C258 | -0.118 | 0.054 | 0.028 | 0.0117
ENTPD6 C325 (UniProt O75354) | -0.216 | -0.166 | -0.172 | -0.319
EXOSC9 C61 (UniProt Q06265) | -0.178 | -0.101 | -0.717 | -0.23
FAM98B C93 (UniProt Q52LJ0) | -0.0187 | 0.163 | -0.353 | 0.00744
ERAL1 C150 (UniProt O75616) | 0.183 | -0.09 | 0.266 | 0.052
EPPK1 C2225(C2761)(C3292)(C3826)(C4360)(C4893) (UniProt P58107) | -0.0286 | -0.0428 | -0.557 | 0.102
ELP2 C204 (UniProt Q6IA86) | 0.175 | 0.048 | -0.353 | -0.151
ESRRG C104 | -0.235 | 0.124 | 0.0696 | 0.106

Given in markdown: part of the list above.

| Target | log2 mean competition ratio ([1]; 50 µM) | log2 mean competition ratio ([1]; 200 µM) | log2 mean competition ratio ([2]; 50 µM) | log2 mean competition ratio ([2]; 200 µM) |
| --- | --- | --- | --- | --- |
| EXOSC6 C117 (UniProt Q5RKV6) | -0.0123 | 0.357 | -0.0604 | -0.0921 |
| EXOC8 C664 (UniProt Q8IYI6) | 0.00391 | 0.0256 | 0.00115 | 0.0123 |

From the supplement of paper PMC11732987, “Enantioselective OTUD7B fragment discovery through chemoproteomics screening and high-throughput optimisation” (Communications Chemistry, 2025)
